# Results from one PubChem assay

By UniProt entry, the sequences of proteins in these tests, tags left out.
UniProt O94782, whole entry, looked up, target on record: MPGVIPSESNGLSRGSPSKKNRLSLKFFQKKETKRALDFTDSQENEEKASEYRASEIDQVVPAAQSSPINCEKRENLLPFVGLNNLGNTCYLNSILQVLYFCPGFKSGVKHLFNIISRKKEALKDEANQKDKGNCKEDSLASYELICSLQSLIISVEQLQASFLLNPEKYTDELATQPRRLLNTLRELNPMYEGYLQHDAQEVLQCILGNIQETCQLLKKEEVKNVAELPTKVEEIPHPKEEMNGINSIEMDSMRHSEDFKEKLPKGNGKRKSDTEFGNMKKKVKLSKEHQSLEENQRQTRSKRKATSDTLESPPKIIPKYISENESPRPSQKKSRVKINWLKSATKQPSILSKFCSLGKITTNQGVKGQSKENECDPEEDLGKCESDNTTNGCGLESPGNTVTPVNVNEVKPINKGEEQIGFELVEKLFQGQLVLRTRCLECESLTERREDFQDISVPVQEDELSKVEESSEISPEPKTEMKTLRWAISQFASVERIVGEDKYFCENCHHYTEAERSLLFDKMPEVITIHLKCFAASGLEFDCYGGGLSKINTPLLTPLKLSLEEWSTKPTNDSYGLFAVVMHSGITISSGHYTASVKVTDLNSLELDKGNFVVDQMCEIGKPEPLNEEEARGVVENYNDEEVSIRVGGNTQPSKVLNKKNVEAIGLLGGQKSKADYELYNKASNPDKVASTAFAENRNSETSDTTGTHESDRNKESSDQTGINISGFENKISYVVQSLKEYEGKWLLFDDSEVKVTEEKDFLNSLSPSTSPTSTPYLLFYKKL

Source: PubChem BioAssay AID504865 (NCATS, 2011).

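Fluorescent signal from cleaved Ub-rhodamine measures how much the isolated USP1/UAF1 deubiquitinase is inhibited, recorded over roughly six minutes. Compounds were titrated over 13 concentrations from about 0.0037 µM up to roughly 110 µM, the top dose varying by compound. The value is the fitted AC50 from the dose-response series, and a lower number means a more potent inhibitor. Calls come from curve class and fitted log AC50: scores 40-100 are active, 1-39 inconclusive (as here, weak, partial or poorly fitted curves), and 0 inactive.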

Values are in µM. All entries here are filed as inconclusive. Only part of the assay is shown, chiefly results filed as inconclusive. A potency from a partial, single-point or poor curve is only a rough figure. Some entries filed as inconclusive have a full curve. Activity scores are not listed here.

SMILES	Potency (µM)	remark
CCCCCCCC/C=C\CCCCCCCC(=O)NCc1ccc(O)c(OC)c1	39.81	inhibitor, partial curve
O=C(NC[C@@H](O)CO)c1c(I)c(C(=O)NC[C@@H](O)CO)c(I)c(N(CCO)C(=O)CO)c1I	39.81	inhibitor, single point
CCCCCCCCCCCC(=O)OCC(O)C1OCC(O)C1O (stereo not shown)	31.62	inhibitor, full curve
CCCCCCC(C)(C)c1ccc([C@@H]2C[C@H](O)CC[C@@H]2CCCO)c(O)c1	35.48	inhibitor, partial curve, poor fit
COc1ccccc1OC(=O)Oc1ccccc1OC	79.43	inhibitor, partial curve, poor fit
CC(C)=CCC/C(C)=C/COc1c2occc2cc2ccc(=O)oc12	50.12	inhibitor, partial curve
CC1=C(C)C(=O)C(CCCCC#CCCCC#CCO)=C(C)C1=O	50.12	inhibitor, partial curve
CC12CCC3c4ccc(OCc5ccccc5)cc4CCC3C1CC(O)C2O (stereo not shown)	56.23	inhibitor, partial curve
CC(C)Oc1ccc2c(=O)cc(-c3ccccc3)oc2c1	44.67	inhibitor, partial curve, poor fit
O=C(Nc1ccccc1)Nc1ccccc1	1.259	inhibitor, partial curve, poor fit
O=c1cc(-c2cccc(O)c2)oc2cccc(O)c12	50.12	inhibitor, partial curve, poor fit
C[C@H]1NC(=O)NC1=O	39.81	inhibitor, partial curve, poor fit
C=C1c2c(Cl)ccc(O)c2C(O)=C2C(=O)[C@]3(O)C(O)=C(C(N)=O)C(=O)C(N(C)C)C3C(O)C12 (stereo partly shown)	56.23	inhibitor, partial curve, poor fit
C=CC(C)(C)c1[nH]c2ccccc2c1C1=C(O)C(=O)C(c2c[nH]c3c(CC=C(C)C)cccc23)=C(O)C1=O	56.23	inhibitor, partial curve, poor fit
Cc1c(C(=O)O)c(O)cc2c1C(=O)c1c(O)c([C@H]3O[C@H](CO)[C@@H](O)[C@H](O)[C@H]3O)c(O)c(O)c1C2=O	56.23	inhibitor, partial curve
COC(=O)c1cc(=O)c(O)c2c(O)c(O)ccc2c1	56.23	inhibitor, partial curve, poor fit
COc1c(C(C)C)oc2cc3oc(=O)ccc3cc12	31.62	inhibitor, full curve, poor fit
NC1CCN(O)C1=O (stereo not shown)	0.2512	inhibitor, full curve, poor fit
O=C1/C(=C\c2cccs2)CCC/C1=C/c1cccs1	44.67	inhibitor, partial curve
CC(C)CCCC(C)C1CC(=O)C2=C3CCC4CC(O)CCC4(C)C3CCC21C (stereo not shown)	17.78	inhibitor, full curve
COc1cccc(-c2ccc3ncnc(NC4CCNCC4)c3c2)c1	50.12	inhibitor, partial curve, poor fit
CC(C)CCC(=O)OC1CCC2C3CCC4=CC(=O)CC[C@]4(C)C3CC[C@]12C (stereo partly shown)	22.39	inhibitor, full curve
C[n+]1ccccc1/C=N\O	39.81	inhibitor, single point
COc1ccc2c(c1)OCC(Cc1ccc(OC)c(OC)c1)C2=O (stereo not shown)	56.23	inhibitor, partial curve, poor fit
CCCCCCCCCC(=O)O[C@H]1CC[C@H]2[C@@H]3CCC4=CC(=O)CC[C@]4(C)[C@H]3CC[C@]12C	35.48	inhibitor, partial curve
CCCCC/C=C\C/C=C\C/C=C\C/C=C\CCCC(=O)Nc1ccc(O)cc1	19.95	inhibitor, full curve
COc1ccc(/C=C/C(=O)c2cc(O)ccc2O)cc1	50.12	inhibitor, partial curve
O=C1C(=O)c2ccccc2C(O)=C1C1CCC(c2ccc(Cl)cc2)CC1 (stereo not shown)	35.48	inhibitor, single point
CNC(=O)Oc1ccc2c(c1)[C@@]1(C)CCN(C)[C@@H]1N2C	56.23	inhibitor, partial curve, poor fit
CC(C)(C)[C@]1(O)CCN2CC3c4ccccc4CCc4cccc(c43)[C@@H]2C1 (stereo partly shown)	63.1	inhibitor, partial curve, poor fit
CCCCCCOC(=O)c1cccnc1	79.43	inhibitor, partial curve, poor fit
CCCCC/C=C\CC(O)/C=C/c1cccc(CC(O)CCCCO)n1 (stereo not shown)	50.12	inhibitor, partial curve
CC(C)=CCC[C@](C)(O)C1CC=C(C)CC1 (stereo partly shown)	89.13	inhibitor, partial curve, poor fit
NC(=NCc1ccc(Cl)cc1)SCCCc1cnc[nH]1	14.13	inhibitor, full curve, poor fit
Nc1nc(Cl)nc2c1ncn2C1CC(O)C(CO)O1 (stereo not shown)	112.2	inhibitor, partial curve, poor fit
N[C@@]1(C(=O)O)CC[C@H](C(=O)O)C1	25.12	inhibitor, partial curve, poor fit
CCOC(=O)C1=C[C@@]2(CC)CCCN3CCc4c(n1c1ccccc41)C32 (stereo partly shown)	50.12	inhibitor, partial curve
c1ccc2c(c1)sc1ccccc12	35.48	inhibitor, partial curve

Some entries from above, unchanged:

- CCCCCCCCCC(=O)O[C@H]1CC[C@H]2[C@@H]3CCC4=CC(=O)CC[C@]4(C)[C@H]3CC[C@]12C : Potency 35.48 µM (inhibitor, partial curve)
- O=C(Nc1ccccc1)Nc1ccccc1 : Potency 1.259 µM (inhibitor, partial curve, poor fit)
- N[C@@]1(C(=O)O)CC[C@H](C(=O)O)C1 : Potency 25.12 µM (inhibitor, partial curve, poor fit)